From doi:10.1101/134007
Results are given in words; binding and its absence hold for the method and conditions named. For some of these results: Binding seen in cells or lysates may run through a third protein. Some results given as binding are weak or reduced against the parent protein; the word gives no strength. Sequences can lack the tags named with a protein. Values belong to the binder of their own block, whether it stands above or below them.

Key:
[1] = molecular target: T1, Human Myc-DHHC6 (WT) (human) (UniProt Q9H6R6); test: co-IP
T1 sequence: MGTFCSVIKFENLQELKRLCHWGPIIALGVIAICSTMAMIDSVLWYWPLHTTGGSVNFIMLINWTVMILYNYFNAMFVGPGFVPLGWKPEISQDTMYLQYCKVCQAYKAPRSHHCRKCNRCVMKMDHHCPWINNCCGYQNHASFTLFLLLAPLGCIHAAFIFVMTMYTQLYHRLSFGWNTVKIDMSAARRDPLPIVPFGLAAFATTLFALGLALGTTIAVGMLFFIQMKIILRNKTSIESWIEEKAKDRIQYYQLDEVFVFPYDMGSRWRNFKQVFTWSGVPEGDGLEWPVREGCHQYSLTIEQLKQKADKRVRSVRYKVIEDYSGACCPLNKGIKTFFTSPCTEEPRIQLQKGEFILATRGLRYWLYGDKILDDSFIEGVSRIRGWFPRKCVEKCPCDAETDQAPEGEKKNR

[2] = molecular target: T1, Human Myc-DHHC6 (WT) (human); test: native gel or EMSA
[3] = molecular target: Myc-DHHC6-C328A-C329A-C343A (AAA) (human) (UniProt Q9H6R6); test: native gel or EMSA
[4] = molecular target: T2, Human Myc-DHHC20 (human), Q5W0Z9; test: native gel or EMSA; settings: remark: other sources report otherwise
T2 chain: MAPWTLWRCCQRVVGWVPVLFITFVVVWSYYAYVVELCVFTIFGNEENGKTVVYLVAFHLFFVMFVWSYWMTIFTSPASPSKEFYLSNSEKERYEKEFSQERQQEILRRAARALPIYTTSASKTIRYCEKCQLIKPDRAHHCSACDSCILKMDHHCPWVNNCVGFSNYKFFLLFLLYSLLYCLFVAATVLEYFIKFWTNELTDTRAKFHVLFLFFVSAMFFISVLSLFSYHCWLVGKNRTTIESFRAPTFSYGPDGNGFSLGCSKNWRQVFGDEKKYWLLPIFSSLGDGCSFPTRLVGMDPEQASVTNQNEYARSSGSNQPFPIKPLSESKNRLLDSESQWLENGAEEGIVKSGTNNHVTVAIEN

Human Myc-DHHC7 (human) = Human Myc-DHHC7 (human) (UniProt Q9NXF8); test: native gel or EMSA

binding [1]: binds
binding [2]: binds
B1: Human Myc-DHHC6 (WT) (enzyme, UniProt Q9H6R6-1 1-413)
chain: MGTFCSVIKFENLQELKRLCHWGPIIALGVIAICSTMAMIDSVLWYWPLHTTGGSVNFIMLINWTVMILYNYFNAMFVGPGFVPLGWKPEISQDTMYLQYCKVCQAYKAPRSHHCRKCNRCVMKMDHHCPWINNCCGYQNHASFTLFLLLAPLGCIHAAFIFVMTMYTQLYHRLSFGWNTVKIDMSAARRDPLPIVPFGLAAFATTLFALGLALGTTIAVGMLFFIQMKIILRNKTSIESWIEEKAKDRIQYYQLDEVFVFPYDMGSRWRNFKQVFTWSGVPEGDGLEWPVREGCHQYSLTIEQLKQKADKRVRSVRYKVIEDYSGACCPLNKGIKTFFTSPCTEEPRIQLQKGEFILATRGLRYWLYGDKILDDSFIEGVSRIRGWFPRKCVEKCPCDAETDQAPEGEKKNR

binding [3]: binds
B2: Myc-DHHC6-C328A-C329A-C343A (AAA) (enzyme, UniProt Q9H6R6-1 1-413)
chain: MGTFCSVIKFENLQELKRLCHWGPIIALGVIAICSTMAMIDSVLWYWPLHTTGGSVNFIMLINWTVMILYNYFNAMFVGPGFVPLGWKPEISQDTMYLQYCKVCQAYKAPRSHHCRKCNRCVMKMDHHCPWINNCCGYQNHASFTLFLLLAPLGCIHAAFIFVMTMYTQLYHRLSFGWNTVKIDMSAARRDPLPIVPFGLAAFATTLFALGLALGTTIAVGMLFFIQMKIILRNKTSIESWIEEKAKDRIQYYQLDEVFVFPYDMGSRWRNFKQVFTWSGVPEGDGLEWPVREGCHQYSLTIEQLKQKADKRVRSVRYKVIEDYSGAAAPLNKGIKTFFTSPATEEPRIQLQKGEFILATRGLRYWLYGDKILDDSFIEGVSRIRGWFPRKCVEKCPCDAETDQAPEGEKKNR

binding [1]: no binding
B3: GFP-tagged DHHC6-C328A-C329A-C343A (AAA) (enzyme, UniProt Q9H6R6-1 1-413)
chain: MGTFCSVIKFENLQELKRLCHWGPIIALGVIAICSTMAMIDSVLWYWPLHTTGGSVNFIMLINWTVMILYNYFNAMFVGPGFVPLGWKPEISQDTMYLQYCKVCQAYKAPRSHHCRKCNRCVMKMDHHCPWINNCCGYQNHASFTLFLLLAPLGCIHAAFIFVMTMYTQLYHRLSFGWNTVKIDMSAARRDPLPIVPFGLAAFATTLFALGLALGTTIAVGMLFFIQMKIILRNKTSIESWIEEKAKDRIQYYQLDEVFVFPYDMGSRWRNFKQVFTWSGVPEGDGLEWPVREGCHQYSLTIEQLKQKADKRVRSVRYKVIEDYSGAAAPLNKGIKTFFTSPATEEPRIQLQKGEFILATRGLRYWLYGDKILDDSFIEGVSRIRGWFPRKCVEKCPCDAETDQAPEGEKKNR

binding [4]: no binding
B4: Human Myc-DHHC20, Q5W0Z9 1-365 (enzyme)
chain: MAPWTLWRCCQRVVGWVPVLFITFVVVWSYYAYVVELCVFTIFGNEENGKTVVYLVAFHLFFVMFVWSYWMTIFTSPASPSKEFYLSNSEKERYEKEFSQERQQEILRRAARALPIYTTSASKTIRYCEKCQLIKPDRAHHCSACDSCILKMDHHCPWVNNCVGFSNYKFFLLFLLYSLLYCLFVAATVLEYFIKFWTNELTDTRAKFHVLFLFFVSAMFFISVLSLFSYHCWLVGKNRTTIESFRAPTFSYGPDGNGFSLGCSKNWRQVFGDEKKYWLLPIFSSLGDGCSFPTRLVGMDPEQASVTNQNEYARSSGSNQPFPIKPLSESKNRLLDSESQWLENGAEEGIVKSGTNNHVTVAIEN

binding (Human Myc-DHHC7 (human)): no binding
B5: Human Myc-DHHC7 (enzyme, UniProt Q9NXF8 1-308)
chain: MQPSGHRLRDVEHHPLLAENDNYDSSSSSSSEADVADRVWFIRDGCGMICAVMTWLLVAYADFVVTFVMLLPSKDFWYSVVNGVIFNCLAVLALSSHLRTMLTDPGAVPKGNATKEYMESLQLKPGEVIYKCPKCCCIKPERAHHCSICKRCIRKMDHHCPWVNNCVGEKNQRFFVLFTMYIALSSVHALILCGFQFISCVRGQWTECSDFSPPITVILLIFLCLEGLLFFTFTAVMFGTQIHSICNDETEIERLKSEKPTWERRLRWEGMKSVFGGPPSLLWMNPFVGFRFRRLPTRPRKGGPEFSV

binding [1]: binds
B6: GFP-tagged DHHC6 ΔDHHC (Del-D126-H127-H128-C129) (enzyme, UniProt Q9H6R6-1)
chain: MGTFCSVIKFENLQELKRLCHWGPIIALGVIAICSTMAMIDSVLWYWPLHTTGGSVNFIMLINWTVMILYNYFNAMFVGPGFVPLGWKPEISQDTMYLQYCKVCQAYKAPRSHHCRKCNRCVMKMPWINNCCGYQNHASFTLFLLLAPLGCIHAAFIFVMTMYTQLYHRLSFGWNTVKIDMSAARRDPLPIVPFGLAAFATTLFALGLALGTTIAVGMLFFIQMKIILRNKTSIESWIEEKAKDRIQYYQLDEVFVFPYDMGSRWRNFKQVFTWSGVPEGDGLEWPVREGCHQYSLTIEQLKQKADKRVRSVRYKVIEDYSGACCPLNKGIKTFFTSPCTEEPRIQLQKGEFILATRGLRYWLYGDKILDDSFIEGVSRIRGWFPRKCVEKCPCDAETDQAPEGEKKNR
